Assay results: PMC10541904
No constants are given. Whether binding was seen depends on the method and setting. In cells and extracts the contact can be indirect. Some entries that bind do so weakly or less than the wild type. Where a sequence is shown, tags or fusion partners need not be part of it.

Chains of the proteins cited; added tags and fusions are not shown.
UniProt P14618: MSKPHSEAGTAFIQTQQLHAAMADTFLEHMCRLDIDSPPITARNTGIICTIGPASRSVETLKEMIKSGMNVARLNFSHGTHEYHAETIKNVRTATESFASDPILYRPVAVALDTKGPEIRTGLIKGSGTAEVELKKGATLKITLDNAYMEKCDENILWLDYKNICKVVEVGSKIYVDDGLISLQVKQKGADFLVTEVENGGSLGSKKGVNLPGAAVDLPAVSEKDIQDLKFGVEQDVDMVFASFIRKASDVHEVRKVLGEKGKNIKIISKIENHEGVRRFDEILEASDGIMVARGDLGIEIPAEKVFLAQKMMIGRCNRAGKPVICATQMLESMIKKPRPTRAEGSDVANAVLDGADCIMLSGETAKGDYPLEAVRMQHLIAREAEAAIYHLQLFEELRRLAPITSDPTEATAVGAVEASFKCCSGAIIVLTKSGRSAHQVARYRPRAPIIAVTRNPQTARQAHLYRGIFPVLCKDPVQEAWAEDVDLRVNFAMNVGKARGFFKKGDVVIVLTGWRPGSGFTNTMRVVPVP

T1: Protein tyrosine phosphatase 4A1 (PTP4A1), Flag-tagged (UniProt Q93096)
T1 sequence: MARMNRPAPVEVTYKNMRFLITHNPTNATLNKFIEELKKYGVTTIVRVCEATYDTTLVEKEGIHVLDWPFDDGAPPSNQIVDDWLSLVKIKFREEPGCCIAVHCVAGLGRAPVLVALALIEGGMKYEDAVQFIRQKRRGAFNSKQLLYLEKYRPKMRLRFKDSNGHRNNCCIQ


Target: T1, Protein tyrosine phosphatase 4A1 (PTP4A1), Flag-tagged
Assay: co-IP; cells transfected with HA-tagged PKM2 or ACO2 and Flag-tagged PTP4A1; lysed in BC300 buffer with sonication; antibody overnight at 4 C, protein A/G agarose beads 3 h; anti-Flag or anti-HA antibodies; western blot

binding	Molecule
binds	pyruvate kinase isoenzyme M2 (PKM2), HA-tagged (from UniProt P14618 1-531)
binds	aconitase 2 (ACO2), HA-tagged (enzyme, UniProt Q99798 28-780) QRAKVAMSHFEPNEYIHYDLLEKNINIVRKRLNRPLTLSEKIVYGHLDDPASQEIERGKSYLRLRPDRVAMQDATAQMAMLQFISSGLSKVAVPSTIHCDHLIEAQVGGEKDLRRAKDINQEVYNFLATAGAKYGVGFWKPGSGIIHQIILENYAYPGVLLIGTDSHTPNGGGLGGICIGVGGADAVDVMAGIPWELKCPKVIGVKLTGSLSGWSSPKDVILKVAGILTVKGGTGAIVEYHGPGVDSISCTGMATICNMGAEIGATTSVFPYNHRMKKYLSKTGREDIANLADEFKDHLVPDPGCHYDQLIEINLSELKPHINGPFTPDLAHPVAEVGKVAEKEGWPLDIRVGLIGSCTNSSYEDMGRSAAVAKQALAHGLKCKSQFTITPGSEQIRATIERDGYAQILRDLGGIVLANACGPCIGQWDRKDIKKGEKNTIVTSYNRNFTGRNDANPETHAFVTSPEIVTALAIAGTLKFNPETDYLTGTDGKKFRLEAPDADELPKGEFDPGQDTYQHPPKDSSGQHVDVSPTSQRLQLLEPFDKWDGKDLEDLQILIKVKGKCTTDHISAAGPWLKFRGHLDNISNNLLIGAINIENGKANSVRNAVTQEFGPVPDTARYYKKHGIRWVVIGDENYGEGSSREHAALEPRHLGGRAIITKSFARIHETNLKKQGLLPLTFADPADYNKIHPVDKLTIQGLKDFTPGKPLKCIIKHPNGTQETILLNHTFNETQIEWFRAGSALNRMKELQQ
